Some of the results follow.
Compound: C=CC(=O)N1CCC[C@@H](n2nc(-c3ccc(Oc4ccccc4)cc3)c3c(N)ncnc32)C1 [ibrutinib]
Test: log2 fold change, soluble protein after heating vs DMSO (PISA); higher = thermal stabilisation; K562 lysate, 10 uM; active = over 0.2 and 3.5 SD of the protein, either way, in both replicates (recomputed)
Summary of the method: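 Values give the log-two fold change in thermal stability against solvent controls, from duplicates. Crude K562 extract at 1 mg/mL protein, made by dounce homogenisation in PBS pH 7.4 with 1 mM MgCl2, was treated with 10 μM compound for 30 min. After 3 min heating across 48°C-58°C, aliquots were pooled, adjusted to 0.5% NP-40 at 4°C and centrifuged at 21,000xg for 90 min. The supernatant was measured by TMTpro 16plex LC-MS/MS with channel sums equalised.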

By UniProt entry, the sequences of proteins in these tests, tags left out. Where a name states a change or a piece, a line headed by the entry shows the natural chain unless it says otherwise.
UniProt P56945: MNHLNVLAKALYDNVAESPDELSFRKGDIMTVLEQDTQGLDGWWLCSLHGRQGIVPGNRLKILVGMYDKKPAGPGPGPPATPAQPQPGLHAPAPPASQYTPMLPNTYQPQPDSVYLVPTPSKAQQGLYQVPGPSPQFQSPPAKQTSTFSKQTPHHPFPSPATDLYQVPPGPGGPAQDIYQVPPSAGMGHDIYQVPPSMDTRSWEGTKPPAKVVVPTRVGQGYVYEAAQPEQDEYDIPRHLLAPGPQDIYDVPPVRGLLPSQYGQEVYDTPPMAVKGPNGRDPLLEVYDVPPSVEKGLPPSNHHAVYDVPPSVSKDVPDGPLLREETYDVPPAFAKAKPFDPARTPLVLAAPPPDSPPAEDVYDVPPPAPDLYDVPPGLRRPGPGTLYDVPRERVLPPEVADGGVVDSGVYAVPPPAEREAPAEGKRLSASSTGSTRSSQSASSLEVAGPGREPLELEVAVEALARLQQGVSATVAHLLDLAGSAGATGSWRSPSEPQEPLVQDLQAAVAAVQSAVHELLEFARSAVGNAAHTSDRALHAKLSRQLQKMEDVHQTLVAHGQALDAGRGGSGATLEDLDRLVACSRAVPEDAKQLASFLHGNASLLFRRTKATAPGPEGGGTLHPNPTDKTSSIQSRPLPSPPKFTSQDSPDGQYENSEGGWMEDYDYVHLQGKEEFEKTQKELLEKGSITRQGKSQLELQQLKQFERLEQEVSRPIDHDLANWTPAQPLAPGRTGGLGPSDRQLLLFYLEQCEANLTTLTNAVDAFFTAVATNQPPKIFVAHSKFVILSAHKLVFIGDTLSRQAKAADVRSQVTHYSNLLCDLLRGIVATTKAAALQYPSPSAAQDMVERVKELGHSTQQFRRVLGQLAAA
UniProt O95816: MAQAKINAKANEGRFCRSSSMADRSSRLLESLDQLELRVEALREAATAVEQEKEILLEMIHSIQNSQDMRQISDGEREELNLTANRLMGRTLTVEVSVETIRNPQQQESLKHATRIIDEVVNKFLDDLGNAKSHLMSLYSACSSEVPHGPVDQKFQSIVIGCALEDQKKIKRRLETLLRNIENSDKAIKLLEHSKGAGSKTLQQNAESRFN
UniProt Q99728: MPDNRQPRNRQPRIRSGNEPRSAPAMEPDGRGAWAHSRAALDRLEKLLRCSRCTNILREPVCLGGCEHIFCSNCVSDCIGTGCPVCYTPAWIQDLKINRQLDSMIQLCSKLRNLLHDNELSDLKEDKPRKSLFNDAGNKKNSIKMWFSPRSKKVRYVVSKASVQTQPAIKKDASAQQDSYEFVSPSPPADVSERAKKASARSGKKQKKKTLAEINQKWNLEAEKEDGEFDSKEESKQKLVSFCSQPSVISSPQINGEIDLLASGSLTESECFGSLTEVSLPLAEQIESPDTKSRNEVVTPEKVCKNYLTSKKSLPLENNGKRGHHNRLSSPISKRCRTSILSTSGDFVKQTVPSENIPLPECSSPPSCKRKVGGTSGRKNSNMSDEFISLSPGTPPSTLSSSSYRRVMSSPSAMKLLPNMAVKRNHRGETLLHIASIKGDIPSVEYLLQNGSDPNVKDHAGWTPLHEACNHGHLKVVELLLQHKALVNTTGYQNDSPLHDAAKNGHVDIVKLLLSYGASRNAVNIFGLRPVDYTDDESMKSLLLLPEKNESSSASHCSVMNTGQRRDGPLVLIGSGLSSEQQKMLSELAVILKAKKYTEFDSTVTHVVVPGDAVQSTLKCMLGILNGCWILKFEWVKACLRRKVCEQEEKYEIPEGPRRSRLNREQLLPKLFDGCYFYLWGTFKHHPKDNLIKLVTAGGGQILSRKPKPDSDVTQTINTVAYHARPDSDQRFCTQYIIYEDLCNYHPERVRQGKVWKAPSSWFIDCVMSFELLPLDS
UniProt O14981: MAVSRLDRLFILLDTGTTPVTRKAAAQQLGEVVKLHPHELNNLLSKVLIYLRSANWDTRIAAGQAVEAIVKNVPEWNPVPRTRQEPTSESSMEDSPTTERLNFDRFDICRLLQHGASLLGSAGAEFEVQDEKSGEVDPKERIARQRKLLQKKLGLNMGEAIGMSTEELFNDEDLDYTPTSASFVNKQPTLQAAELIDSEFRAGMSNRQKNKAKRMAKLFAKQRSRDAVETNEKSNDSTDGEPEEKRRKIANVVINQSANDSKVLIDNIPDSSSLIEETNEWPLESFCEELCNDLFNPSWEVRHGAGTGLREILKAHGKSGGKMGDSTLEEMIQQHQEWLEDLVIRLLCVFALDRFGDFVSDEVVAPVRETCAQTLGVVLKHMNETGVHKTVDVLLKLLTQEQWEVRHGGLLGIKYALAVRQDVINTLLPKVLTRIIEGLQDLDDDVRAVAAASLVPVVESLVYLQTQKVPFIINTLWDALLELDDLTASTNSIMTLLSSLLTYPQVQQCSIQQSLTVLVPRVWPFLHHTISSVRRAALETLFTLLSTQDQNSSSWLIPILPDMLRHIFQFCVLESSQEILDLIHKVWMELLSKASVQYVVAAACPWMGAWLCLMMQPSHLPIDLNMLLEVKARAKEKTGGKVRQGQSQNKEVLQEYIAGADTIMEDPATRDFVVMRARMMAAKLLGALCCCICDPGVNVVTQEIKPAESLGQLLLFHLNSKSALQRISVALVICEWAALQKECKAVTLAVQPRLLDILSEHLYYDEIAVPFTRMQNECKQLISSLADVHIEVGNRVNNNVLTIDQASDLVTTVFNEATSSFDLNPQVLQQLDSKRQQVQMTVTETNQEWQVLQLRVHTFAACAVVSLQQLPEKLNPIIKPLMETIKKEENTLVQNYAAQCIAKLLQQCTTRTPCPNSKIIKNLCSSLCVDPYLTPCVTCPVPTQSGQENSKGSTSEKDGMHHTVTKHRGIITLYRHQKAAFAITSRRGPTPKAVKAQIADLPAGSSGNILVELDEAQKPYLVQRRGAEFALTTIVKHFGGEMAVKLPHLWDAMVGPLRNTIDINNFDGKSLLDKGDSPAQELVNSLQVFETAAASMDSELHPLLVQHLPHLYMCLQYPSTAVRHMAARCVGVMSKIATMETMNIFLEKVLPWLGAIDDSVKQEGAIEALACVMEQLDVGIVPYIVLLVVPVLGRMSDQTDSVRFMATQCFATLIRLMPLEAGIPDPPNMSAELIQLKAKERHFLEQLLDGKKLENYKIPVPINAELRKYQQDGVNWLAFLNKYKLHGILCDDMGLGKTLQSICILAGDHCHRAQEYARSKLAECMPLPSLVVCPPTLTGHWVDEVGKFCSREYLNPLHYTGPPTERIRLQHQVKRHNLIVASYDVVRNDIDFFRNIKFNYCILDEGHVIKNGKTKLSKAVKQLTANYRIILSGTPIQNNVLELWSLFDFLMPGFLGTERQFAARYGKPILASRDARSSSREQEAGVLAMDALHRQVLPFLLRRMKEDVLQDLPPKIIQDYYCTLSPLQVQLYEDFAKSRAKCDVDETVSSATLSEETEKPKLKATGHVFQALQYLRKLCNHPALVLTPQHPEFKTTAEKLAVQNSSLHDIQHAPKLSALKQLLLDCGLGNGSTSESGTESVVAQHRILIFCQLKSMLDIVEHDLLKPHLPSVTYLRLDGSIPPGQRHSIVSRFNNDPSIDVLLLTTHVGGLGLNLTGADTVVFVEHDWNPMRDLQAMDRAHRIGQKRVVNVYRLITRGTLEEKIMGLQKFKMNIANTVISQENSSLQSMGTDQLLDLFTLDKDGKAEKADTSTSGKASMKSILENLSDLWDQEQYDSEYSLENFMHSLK
UniProt P35613: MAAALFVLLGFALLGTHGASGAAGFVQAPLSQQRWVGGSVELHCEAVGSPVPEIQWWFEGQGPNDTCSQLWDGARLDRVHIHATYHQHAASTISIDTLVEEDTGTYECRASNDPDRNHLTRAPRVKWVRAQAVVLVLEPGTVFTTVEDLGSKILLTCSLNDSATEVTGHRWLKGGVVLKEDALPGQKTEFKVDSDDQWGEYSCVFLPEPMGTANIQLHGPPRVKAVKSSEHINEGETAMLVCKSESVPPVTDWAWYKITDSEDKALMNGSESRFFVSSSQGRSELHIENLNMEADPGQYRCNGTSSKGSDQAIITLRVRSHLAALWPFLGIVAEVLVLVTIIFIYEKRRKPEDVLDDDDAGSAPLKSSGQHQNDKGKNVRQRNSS
UniProt O75934: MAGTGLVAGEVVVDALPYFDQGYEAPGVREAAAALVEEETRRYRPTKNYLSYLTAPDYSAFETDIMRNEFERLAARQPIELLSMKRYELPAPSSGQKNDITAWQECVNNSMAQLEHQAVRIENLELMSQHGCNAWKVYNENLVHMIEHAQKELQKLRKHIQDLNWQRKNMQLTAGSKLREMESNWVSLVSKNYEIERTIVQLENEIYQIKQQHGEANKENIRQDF
UniProt P21953: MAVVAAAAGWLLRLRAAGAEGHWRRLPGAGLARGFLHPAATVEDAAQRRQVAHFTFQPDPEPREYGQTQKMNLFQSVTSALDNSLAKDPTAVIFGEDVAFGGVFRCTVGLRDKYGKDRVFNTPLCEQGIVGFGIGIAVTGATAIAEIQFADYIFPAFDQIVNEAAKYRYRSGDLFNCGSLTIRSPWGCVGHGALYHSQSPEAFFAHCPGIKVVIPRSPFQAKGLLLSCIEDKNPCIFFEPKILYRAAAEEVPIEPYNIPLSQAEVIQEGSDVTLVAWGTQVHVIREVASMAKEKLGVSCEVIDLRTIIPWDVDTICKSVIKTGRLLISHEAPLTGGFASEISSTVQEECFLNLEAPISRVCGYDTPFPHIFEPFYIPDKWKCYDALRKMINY
UniProt P55957: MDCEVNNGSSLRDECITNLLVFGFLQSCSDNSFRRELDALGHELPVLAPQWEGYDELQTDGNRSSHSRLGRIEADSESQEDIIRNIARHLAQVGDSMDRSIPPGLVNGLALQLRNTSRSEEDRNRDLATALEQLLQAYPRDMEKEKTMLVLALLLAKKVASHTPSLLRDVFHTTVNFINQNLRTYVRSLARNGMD
UniProt Q9BXK5, whole entry, looked up: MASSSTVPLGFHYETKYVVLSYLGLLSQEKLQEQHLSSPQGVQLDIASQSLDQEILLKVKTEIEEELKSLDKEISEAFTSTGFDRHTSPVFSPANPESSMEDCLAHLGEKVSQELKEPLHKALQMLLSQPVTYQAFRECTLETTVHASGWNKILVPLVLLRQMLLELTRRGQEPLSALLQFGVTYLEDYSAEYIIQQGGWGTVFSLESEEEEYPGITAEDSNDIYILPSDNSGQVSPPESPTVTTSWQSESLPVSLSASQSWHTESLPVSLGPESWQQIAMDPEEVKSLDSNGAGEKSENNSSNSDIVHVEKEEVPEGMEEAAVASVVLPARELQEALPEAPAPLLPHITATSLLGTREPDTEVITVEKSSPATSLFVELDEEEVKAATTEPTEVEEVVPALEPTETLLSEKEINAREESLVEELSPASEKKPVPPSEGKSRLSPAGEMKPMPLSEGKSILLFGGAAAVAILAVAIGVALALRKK
UniProt Q6QNY0: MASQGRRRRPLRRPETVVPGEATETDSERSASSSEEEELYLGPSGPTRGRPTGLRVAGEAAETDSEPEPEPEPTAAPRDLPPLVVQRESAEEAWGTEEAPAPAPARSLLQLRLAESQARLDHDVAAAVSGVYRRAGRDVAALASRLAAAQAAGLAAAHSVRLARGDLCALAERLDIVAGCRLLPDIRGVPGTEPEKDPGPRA

log2 fold change, inactive:
BCAR1 isoform 6 (UniProt P56945) 0.024
BAG2 (UniProt O95816) -0.052
BARD1 (UniProt Q99728) 0.006
BTAF1 (UniProt O14981) -0.016
BSG (UniProt P35613) -0.029
BCAS2 (UniProt O75934) 0.091
BCKDHB (UniProt P21953) -0.102
BTF3L4 (UniProt Q96K17) -0.019
BID isoform 2 (UniProt P55957) 0.132
BCL2L13 (UniProt Q9BXK5) -0.004
BCKDK (UniProt O14874) 0.048
BLOC1S3 (UniProt Q6QNY0) 0.065

Fetched one by one from above (2):
log2 fold change, inactive:
BCAR1 isoform 6 (UniProt P56945) 0.024
BCL2L13 (UniProt Q9BXK5) -0.004
